## Drug screen on melanoma cell lines: apoptosis marker

Values as published with doi:10.1371/journal.pone.0140310, rounded.

Compounds and concentrations:
GW441756: Cn1cc(/C=C2\C(=O)Nc3cccnc32)c2ccccc21 at 2 µM
dovitinib: CN1CCN(c2ccc3nc(-c4c(N)c5c(F)cccc5[nH]c4=O)[nH]c3c2)CC1 at 0.5 µM
sunitinib: CCN(CC)CCNC(=O)c1c(C)[nH]c(/C=C2\C(=O)Nc3ccc(F)cc32)c1C at 2 µM
nilutamide: CC1(C)NC(=O)N(c2ccc([N+](=O)[O-])c(C(F)(F)F)c2)C1=O at 5 µM
GSK650394: O=C(O)c1ccc(-c2c[nH]c3ncc(-c4ccccc4)cc23)cc1C1CCCC1 at 0.8 µM
GW9662: O=C(Nc1ccccc1)c1cc([N+](=O)[O-])ccc1Cl at 10 µM
SU6656: CN(C)S(=O)(=O)c1ccc2c(c1)/C(=C/c1cc3c([nH]1)CCCC3)C(=O)N2 at 2 µM
ENMD-2076: Cc1cc(Nc2cc(N3CCN(C)CC3)nc(/C=C/c3ccccc3)n2)n[nH]1 at 0.2 µM

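The test systems are human melanoma cell lines, treated with a pair of drugs for 72 h and then stained and imaged. The read-out is the fraction of cleaved-PARP-positive nuclei, in % of that fraction in the DMSO control; 200 means twice the control level of this apoptosis marker. Concentrations were fixed for each drug; these are the higher of two levels. These are primary screening values without error estimates. The marker varies much from line to line, for technical or biological reasons.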 This is part of the screen, not chosen by result. A dash means that no value is listed here.

| Combination | RVH-421 | C32 | COLO 800 | SK-MEL-2 | UACC-257 | G-361 | A2058 | WM1716 |
|---|---|---|---|---|---|---|---|---|
| GSK650394 and dovitinib | 33.2 | 164 | 181 | 221 | 101 | 437 | 1450 | 79.4 |
| GW441756 and nilutamide | 448 | 86.5 | 179 | 75.0 | 48.0 | 63.1 | 105 | 21.9 |
| ENMD-2076 and dovitinib | 74.0 | 85.1 | 266 | 385 | 40.7 | 100 | 671 | 28.2 |
| GW9662 and dovitinib | 128 | 94.8 | 242 | 275 | 49.8 | 232 | 513 | 74.4 |
| GW9662 and ENMD-2076 | 175 | 86.8 | 133 | 98.8 | 75.1 | 130 | 123 | 83.6 |
| SU6656 and sunitinib | 26.5 | 276 | 35.1 | 108 | 53.7 | 138 | 268 | 58.1 |
| SU6656 and dovitinib | 64.9 | 139 | 172 | 206 | 49.4 | 397 | 977 | 43.3 |
| GSK650394 and SU6656 | 170 | 201 | 311 | 143 | 116 | 407 | 168 | 128 |
| ENMD-2076 and GW441756 | 113 | 70.9 | 113 | 42.9 | 78.0 | 179 | 105 | 36.2 |
| GSK650394 and sunitinib | 77.0 | 173 | 283 | 68.4 | 75.7 | 231 | 437 | 49.4 |
| nilutamide and SU6656 | 270 | 67.1 | 127 | 62.5 | 51.4 | 126 | 134 | 113 |
| GW441756 and dovitinib | 138 | 89.5 | 76.7 | 147 | 74.2 | 188 | 390 | 74.6 |
| ENMD-2076 and GSK650394 | 112 | 101 | 325 | 178 | 39.6 | 205 | 144 | 115 |
| dovitinib and sunitinib | 149 | 137 | 87.1 | 245 | 98.6 | 194 | 302 | 87.0 |
| GW441756 and SU6656 | 166 | 79.5 | 78.0 | 37.3 | 57.6 | 71.2 | 181 | 44.1 |
| GW441756 and GSK650394 | 196 | 300 | 878 | 58.7 | 55.7 | 96.1 | 97.2 | 98.7 |
| SU6656 and ENMD-2076 | 114 | 109 | 35.1 | 140 | 80.0 | 204 | 272 | 153 |
| GW9662 and GW441756 | 49.7 | 97.7 | 127 | 75.6 | 41.9 | 103 | 143 | 135 |
| ENMD-2076 and nilutamide | 89.5 | 197 | 237 | 51.0 | 38.8 | 108 | 140 | 150 |
| GW9662 and GSK650394 | 64.4 | 94.5 | 73.3 | 158 | 19.0 | 35.3 | 121 | 77.7 |
| nilutamide and sunitinib | 31.7 | 79.7 | 173 | - | 48.3 | 155 | 275 | 116 |

2 of the entries, repeated:

Combination,RVH-421,C32,COLO 800,SK-MEL-2,UACC-257,G-361,A2058,WM1716
GW9662 and GSK650394,64.4,94.5,73.3,158,19.0,35.3,121,77.7
GW441756 and nilutamide,448,86.5,179,75.0,48.0,63.1,105,21.9